Assay results published in PubChem BioAssay AID493014 (National Center for Advancing Translational Sciences (NCATS), 2011).
This is one part of the list. Shown are side measurements of this screen, not its main read-out; they come without a call. The list favours compounds with an active or inconclusive main result. Potencies come from curve fits of mixed quality, noted in brackets.

Test: qHTS Assay to Find Inhibitors of Chronic Active B-Cell Receptor Signaling
Details: ABC-DLBCL IkBa-CBG/CBR reporter, luminescence ratio (green luciferase fused to IkBa over red control in TMD8 lymphoma cells), 4 h
Procedure, shortened: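 Cell line TMD8 (human ABC DLBCL), stably expressing tet-inducible CBG68-IkBa fusion and CBR; IMDM/0.5% FBS; cpd up to 46 uM; dox induction, 4 h, 37C/5% CO2; dual luminescence; green/red ratio; MG132 control.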

[1] = measured here: CBR red luminescence, cell number
[2] = measured here: IkBa-CBG green luminescence

| SMILES | AC50 [1] | AC50 [2] |
| --- | --- | --- |
| CCCSc1nsc(NC(=O)C(c2ccccc2)c2ccccc2)n1 | 7.31 µM [falling, partial curve] | – |
| Nc1ccc(O)cc1C(=O)OCC(=O)C12CC3CC(CC(C3)C1)C2 | 11.2 µM [falling, partial curve] | – |
| Cn1c(Cl)c(/C=N/OC(=O)C(C)(C)C)c2ccccc21 | 11.2 µM [rising, partial curve, poor fit] | – |
| O=C(CSc1nc(-c2ccc(F)cc2)cs1)N1CCOCC1 | 2.06 µM [rising, partial curve, poor fit] | – |
| CCN(C(=O)c1cc2c(s1)-c1ccccc1S(=O)(=O)C2)c1cc(OC)ccc1OC | 3.98 µM [falling, full curve] | – |
| O=C(NCCN1CCN(Cc2ccc([N+](=O)[O-])cc2)CC1)C(=O)Nc1ccccc1 | 25.9 µM [rising, single point] | – |
| O=C(Nc1nccs1)C1(S(=O)(=O)c2ccc(Cl)cc2)CC1 | 3.16 µM [rising, full curve, poor fit] | – |
| O=C(CNC(=O)c1ccco1)NCC(=O)OCC(=O)c1ccc(Cl)c([N+](=O)[O-])c1 | 15.8 µM [falling, single point] | – |
| CC(=O)c1sc(NCCOc2ccc(C)cc2)nc1C | 0.501 µM [rising, full curve, poor fit] | – |
| Cc1ccc(NC(=O)c2noc3c2CCCCC3)cc1C | 0.0651 µM [rising, full curve, poor fit] | – |
| CCCOc1ccc(-c2nc(C#N)c(N3CCN(CC)CC3)o2)cc1 | 15.8 µM [rising, single point] | – |
| CNC(=S)N/N=C(\C)c1ccc(Cl)s1 | – | 9.2 µM [falling, partial curve] |
| Cn1nc(-c2ccccc2)c2cc([N+](=O)[O-])ccc21 | 11.2 µM [falling, single point] | – |
| Cc1nc2c(-c3ccc(F)cc3)cnn2c(N)c1-c1ccc(F)cc1 | 2.51 µM [rising, partial curve] | – |
| CCOc1cc(/C=N/Nc2nncc(-c3ccccc3)n2)ccc1O | 2.24 µM [falling, full curve, poor fit] | – |
| Cc1cccc2c1-c1sc(C(=O)N3CCCCC3)cc1CO2 | 15.8 µM [falling, single point] | – |
| C=CCn1c(SCC(=O)Nc2ccc(Br)cc2)nc(O)c(CC)c1=O | 15.8 µM [falling, single point] | – |
| COc1ccccc1N(CC(=O)Nc1ccc(C(F)(F)F)cc1)S(C)(=O)=O | 20 µM [falling, partial curve, poor fit] | – |
| CCN1C(=O)/C(=C/c2nc3ccccc3c(=O)[nH]2)c2ccccc21 | 32.6 µM [falling, single point] | – |
| Cc1ccc(C)c(N2CCN(S(=O)(=O)c3ccc4c(c3)NC(=O)CS4)CC2)c1 | 25.1 µM [falling, single point] | – |
| COc1ccc(Cl)cc1NC(=O)CN(C)CC(=O)Nc1ccc(Br)cc1 | 28.2 µM [falling, single point] | – |

One compound at a time, from the list above. Values in the order: AC50 [1]	AC50 [2]
CCN(C(=O)c1cc2c(s1)-c1ccccc1S(=O)(=O)C2)c1cc(OC)ccc1OC is entered as 3.98 µM [falling, full curve]	–
COc1ccccc1N(CC(=O)Nc1ccc(C(F)(F)F)cc1)S(C)(=O)=O is entered as 20 µM [falling, partial curve, poor fit]	–
O=C(NCCN1CCN(Cc2ccc([N+](=O)[O-])cc2)CC1)C(=O)Nc1ccccc1 is entered as 25.9 µM [rising, single point]	–

Further results.

| SMILES | AC50 [1] | AC50 [2] |
| --- | --- | --- |
| Cc1cccc(S(=O)(=O)CC(=O)Nc2nc(-c3ccccc3)cs2)c1 | 2.06 µM [rising, partial curve, poor fit] | – |
| CCCCn1c(C)cc2c(c1=O)C1O[C@](c3ccsc3)(Cc3cc(OC)c(OC)cc31)O2 | 1.58 µM [falling, partial curve, poor fit] | – |
| CCOCCCNC(=S)NCCCNc1nc2c(C)c(C)ccc2cc1C#N | 10 µM [falling, partial curve, poor fit] | – |
| COc1ccc(S(=O)(=O)Nc2ccc(S(=O)(=O)Nc3ccc(F)cc3)cc2)cc1C | 4.11 µM [falling, partial curve, poor fit] | – |
| CCN(C(=O)CSc1nnc(-c2ccc(F)cc2)c2ccccc12)C1CCS(=O)(=O)C1 (configuration not stated) | 25.1 µM [falling, single point] | – |
| NC(=S)Nc1ccc(Cl)c(Cl)c1 | 3.55 µM [rising, partial curve, poor fit] | – |
| COc1ccc(C(=O)NCc2nnc(SCC(=O)N3CCc4ccccc43)o2)cc1OC | 0.00461 µM [falling, full curve, poor fit] | – |
| Cn1c2ccccc2c2nnc(SCC(N)=O)nc21 | 35.5 µM [falling, single point] | – |
| COc1cccc(OC)c1C(=O)Nc1ccc2c(c1)Cc1ccccc1-2 | 6.31 µM [falling, single point] | – |
| COc1cccc(-c2nnc(NC(=O)c3cccs3)s2)c1 | 2.24 µM [falling, full curve, poor fit] | – |
| COc1ccc(/C=N/NC(=O)c2ccncc2)cc1CSc1nc2ccccc2s1 | 0.731 µM [rising, partial curve, poor fit] | – |
| COc1ccccc1CN1CCC(n2nccc2NC(=O)CCOc2ccccc2)CC1 | 17.8 µM [falling, single point] | – |
| CSc1ccc(CN(C)C(=O)COc2ccc(C(=O)c3ccccc3)cc2)cc1 | 12.6 µM [rising, single point] | 28.2 µM [falling, single point] |
| COCCCN1C(=O)c2[nH]nc(-c3ccccc3O)c2C1c1ccc(Cl)cc1 (configuration not stated) | 7.31 µM [falling, partial curve, poor fit] | – |
| Cc1cccn2c(=O)c3cc(S(=O)(=O)c4ccc(Br)cc4)c(=N)n(C4CCCC4)c3nc12 | 0.447 µM [rising, full curve, poor fit] | – |
| COc1ccc(/C=N/Nc2nn3cnnc3c3ccccc23)cc1 | 12.6 µM [falling, partial curve, poor fit] | – |
| Cc1ccc(Cn2ccc(NC(=O)c3cc(-c4cccs4)on3)n2)cc1 | 2.06 µM [falling, full curve] | – |
| Cc1cccc2sc(N(CCCN(C)C)C(=O)c3ccc4ncsc4c3)nc12 | 11.2 µM [falling, partial curve, poor fit] | – |
| COc1ccc(NC(=O)CSc2nc(SC)ns2)cc1 | 0.126 µM [rising, full curve, poor fit] | – |
| COc1ccc(C(NCC(=O)Nc2c(C)cccc2C)c2ccccc2)cc1 (configuration not stated) | 35.5 µM [rising, single point] | – |
